PubChem BioAssay AID1224830, NIAID, 2016
Here is a random part of about 18,000 reagents tested. About 2,900 of all reagents (16%) count as active. 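Calls are made per well; low scores hint the gene aids the LPS response, high scores that it dampens it.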 Repeated entries: four replicate wells of each siRNA pool. Reagent sequences are not shown.

Screen: 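Regulators of TLR4 signalling towards TNF-alpha in macrophage-like cells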 (primary screen)
Cells: human THP-1 monocytic leukaemia cells, TNF dual-luciferase reporter clone, PMA-differentiated to macrophage-like cells
Reagent: siRNA pool against human genes, 50 nM
Time to read-out: LPS for 4 h, given about 3 days after siRNA transfection
Treatment: bacterial LPS (TLR4 ligand), 10 ng/ml
Detection: 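Ratio of firefly to renilla light, scaled to the plate median and expressed as a robust z-score per replicate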
Direction: TNF reporter robust z-score: higher = stronger TNF reporter response to LPS
Call rule: 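Each well counts as active if its z-score is over 2.8 or under -1.5; controls are left without a call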

target gene	TNF reporter robust z-score	activity call
GPATCH3 (G-patch domain containing 3)	-0.22	inactive
GPATCH3 (G-patch domain containing 3)	0.28	inactive
GPATCH3 (G-patch domain containing 3)	0	inactive
GPATCH3 (G-patch domain containing 3)	0.54	inactive
STATH (statherin)	1.67	inactive
STATH (statherin)	0.7	inactive
STATH (statherin)	1.48	inactive
STATH (statherin)	1.43	inactive
PEDS1-UBE2V1 (PEDS1-UBE2V1 readthrough)	0.84	inactive
PEDS1-UBE2V1 (PEDS1-UBE2V1 readthrough)	3.12	active
PEDS1-UBE2V1 (PEDS1-UBE2V1 readthrough)	2.42	inactive
PEDS1-UBE2V1 (PEDS1-UBE2V1 readthrough)	0.78	inactive
MRPL20 (mitochondrial ribosomal protein L20)	1.13	inactive
MRPL20 (mitochondrial ribosomal protein L20)	0.64	inactive
MRPL20 (mitochondrial ribosomal protein L20)	-0.21	inactive
MRPL20 (mitochondrial ribosomal protein L20)	0.42	inactive
TMT1B (thiol methyltransferase 1B)	0.11	inactive
TMT1B (thiol methyltransferase 1B)	0.24	inactive
TMT1B (thiol methyltransferase 1B)	0.47	inactive
TMT1B (thiol methyltransferase 1B)	1.9	inactive
AMBRA1 (autophagy and beclin 1 regulator 1)	-0.17	inactive
AMBRA1 (autophagy and beclin 1 regulator 1)	2.28	inactive
AMBRA1 (autophagy and beclin 1 regulator 1)	-0.41	inactive
AMBRA1 (autophagy and beclin 1 regulator 1)	1.82	inactive
BEST1 (bestrophin 1)	-0.25	inactive
BEST1 (bestrophin 1)	2.15	inactive
BEST1 (bestrophin 1)	-0.59	inactive
BEST1 (bestrophin 1)	0.58	inactive
FNDC9 (fibronectin type III domain containing 9)	-0.51	inactive
FNDC9 (fibronectin type III domain containing 9)	-0.68	inactive
FNDC9 (fibronectin type III domain containing 9)	-0.78	inactive
FNDC9 (fibronectin type III domain containing 9)	-0.45	inactive
CSTPP1	-0.09	inactive
CSTPP1	0.18	inactive
CSTPP1	1.97	inactive
CSTPP1	-0.73	inactive
CIRBP-AS1 (CIRBP antisense RNA 1)	-0.29	inactive
CIRBP-AS1 (CIRBP antisense RNA 1)	-1.19	inactive
CIRBP-AS1 (CIRBP antisense RNA 1)	-0.68	inactive
CIRBP-AS1 (CIRBP antisense RNA 1)	-0.48	inactive
POLR3H (RNA polymerase III subunit H)	0.47	inactive
POLR3H (RNA polymerase III subunit H)	0.69	inactive
POLR3H (RNA polymerase III subunit H)	0.27	inactive
POLR3H (RNA polymerase III subunit H)	0.43	inactive
AGPAT4 (1-acylglycerol-3-phosphate O-acyltransferase 4)	-0.11	inactive
AGPAT4 (1-acylglycerol-3-phosphate O-acyltransferase 4)	-0.46	inactive
AGPAT4 (1-acylglycerol-3-phosphate O-acyltransferase 4)	0.26	inactive
AGPAT4 (1-acylglycerol-3-phosphate O-acyltransferase 4)	1.03	inactive

Already shown: entries from further up.
target gene	TNF reporter robust z-score	activity call
STATH (statherin)	0.7	inactive
STATH (statherin)	1.48	inactive
STATH (statherin)	1.43	inactive
PEDS1-UBE2V1 (PEDS1-UBE2V1 readthrough)	0.84	inactive
PEDS1-UBE2V1 (PEDS1-UBE2V1 readthrough)	3.12	active
